Experimental data reported in PubChem BioAssay AID320 (DTP/NCI, 2004).
The list shows only some results of the screen, not a fair sample: it gathers tests that were run many times, whatever their T/C, doses with no T/C, and many T/C values between a quarter and a half above the control. Further doses and runs are listed elsewhere. T/C: endpoint of the treated group in % of that of the vehicle group. Some doses have a count of surviving animals in place of a T/C: the source files T/C as zero there, which appears to mark a toxic dose or a test without result, not a measured value. Some doses without a T/C left all or most animals alive at the check, yet need not have been tolerated: survival well below the control is almost never listed, so the zero probably covers shortened survival too. Counts of survivors are from the toxicity check (mostly the fifth day) where no day follows; animals may have died later. Schedules are NCI's codes, taken here to give the interval after Q, in days (D) or hours (H), and the number of doses after X. Some entries were tested several times; the values are given in rising order. For survival time, this PubChem deposit counts one and a half times the control or more as active, and values a quarter to a half above the control carry no call in these data; other NCI protocols may use other cut-offs. Some T/C values are followed by the survivors on the day toxicity was checked, most often the fifth; without a count, all were alive then.

System: BDF1 mice, P329 reticulum cell sarcoma ip, survival T/C
Assay: NCI In Vivo Anticancer Drug Screen. Data for tumor model P329 Reticulum Cell Sarcoma (intraperitoneal) in B6D2F1 (BDF1) mice
Conditions: T/C endpoint: median survival time, schedule: Q01DX010 (ip), higher T/C = longer survival
Description: The antitumor activity of compounds was measured in mice bearing transplantable tumors. Survival or tumor size were measured and the results are expressed as the measurement made in the treated group (T) divided by the measurement made in the vehicle treated control group (C). The tumor model used in this assay is P329 Reticulum Cell Sarcoma (intraperitoneal) in B6D2F1 (BDF1) mice

[1] = dose: 120.0 mg/kg/injection, vehicle: saline
[2] = dose: 16.0 mg/kg/injection, vehicle: saline
[3] = dose: 400.0 mg/kg/injection, vehicle: saline
[4] = dose: 0.25 mg/kg/injection, vehicle: saline
[5] = dose: 0.5 mg/kg/injection, vehicle: saline
[6] = dose: 2.5 mg/kg/injection, vehicle: saline
[7] = dose: 5.0 mg/kg/injection, vehicle: saline
[8] = dose: 10.0 mg/kg/injection, vehicle: saline
[9] = dose: 20.0 mg/kg/injection, vehicle: saline
[10] = dose: 8.0 mg/kg/injection, vehicle: saline
[11] = dose: 2.0 mg/kg/injection, vehicle: saline
[12] = dose: 40.0 mg/kg/injection, vehicle: saline

CN(Cc1cnc2nc(N)nc(N)c2n1)c1ccc(C(=O)N[C@@H](CCC(=O)O)C(=O)O)cc1
T/C (dose: 0.75 mg/kg/injection, vehicle: other): 126 and 137 % of control | survivor count (dose: 3.0 mg/kg/injection, vehicle: other): 5 of 6 and 6 of 6

O=C(Nc1ccc(C2=NCCN2)cc1)c1ccc(C(=O)Nc2ccc(C3=NCCN3)cc2)c([N+](=O)[O-])c1
T/C (dose: 12.0 mg/kg/injection, vehicle: saline): 133 and 142 % of control | survivor count (dose: 18.0 mg/kg/injection, vehicle: saline): 6 of 6

N#CCSc1ncnc2nc[nH]c12
T/C (dose: 30.0 mg/kg/injection, vehicle: saline): 134 % of control | survivor count [1]: 5 of 6 | survivor count (dose: 240.0 mg/kg/injection, vehicle: saline): 6 of 6

CC/C(=C(/CC)c1ccc(O)cc1)c1ccc(O)cc1
survivor count (dose: 100.0 mg/kg/injection, vehicle: saline): 6 of 6

O[C@H](CN1CC1)[C@@H](O)CN1CC1
T/C (dose: 125.0 micrograms/kg/injection, vehicle: saline): 132 % of control | T/C (dose: 250.0 micrograms/kg/injection, vehicle: saline): 143 % of control | survivor count (dose: 500.0 micrograms/kg/injection, vehicle: saline): 6 of 6

c1ccc(CNc2ncnc3[nH]ncc23)cc1
T/C [2]: 130 % of control | survivor count (dose: 32.0 mg/kg/injection, vehicle: saline): 6 of 6 | survivor count (dose: 64.0 mg/kg/injection, vehicle: saline): 6 of 6

Nc1nc(N)c2nc(CNc3ccc(C(=O)NC(CCC(=O)O)C(=O)O)cc3)cnc2n1 (stereo not given)
T/C (dose: 0.2 mg/kg/injection, vehicle: other): 146 % of control | survivor count (dose: 0.4 mg/kg/injection, vehicle: other): 6 of 6

O=c1cnn(C2OC(CO)C(O)C2O)c(=O)[nH]1 (stereo not given)
T/C [3]: 133 % of control | T/C (dose: 800.0 mg/kg/injection, vehicle: saline): 140 % of control | survivor count (dose: 1600.0 mg/kg/injection, vehicle: saline): 6 of 6

COC(=O)[C@@H]1c2cc3c(c(O)c2[C@@H](OC2OC(C)C(OC)C(C)(OC)C2OC)C[C@]1(C)O)C(=O)c1c(O)cc2c(c1C3=O)O[C@H]1O[C@]2(C)[C@H](O)[C@@H](N(C)C)[C@@H]1O (stereo not given in full)
survivor count (dose: 1000.0 micrograms/kg/injection, vehicle: saline): 6 of 6

CC[C@]1(O)C[C@H]2CN(CCc3c([nH]c4ccccc34)[C@@](C(=O)OC)(c3cc4c(cc3OC)N(C=O)[C@H]3[C@@](O)(C(=O)OC)[C@H](OC(C)=O)[C@]5(CC)C=CCN6CC[C@]43[C@@H]65)C2)C1
T/C (dose: 0.12 mg/kg/injection, vehicle: saline): 127 % of control | survivor count [4]: 6 of 6 | survivor count [5]: 5 of 6 and 6 of 6

CS(=O)(=O)OCCCl
survivor count (dose: 150.0 mg/kg/injection, vehicle: saline): 3 of 6

CN(C)c1ccc(Nc2c3ccccc3nc3ccccc23)cc1
T/C (dose: 36.0 mg/kg/injection, vehicle: saline): 138 % of control | T/C (dose: 54.0 mg/kg/injection, vehicle: saline): 128 and 142 % of control | T/C (dose: 80.0 mg/kg/injection, vehicle: saline): 142 % of control | survivor count [1]: 4 of 6

CC[n+]1c(-c2ccccc2)c2cc(N)ccc2c2ccc(N)cc21
T/C [6]: 130 % of control | T/C [7]: 135 and 138 % of control | T/C [8]: 125 and 146 % of control | survivor count [9]: 6 of 6

CO[C@@H]1[C@@H](OC2OC(C)C(OC3CC(C)(O)C(OC(=O)CC(C)C)C(C)O3)C(N(C)C)C2O)[C@@H](CC=O)C[C@@H](C)C(=O)/C=C/C2O[C@H]2C[C@@H](C)OC(=O)C[C@H]1OC(C)=O (stereo not given in full)
survivor count (dose: 600.0 mg/kg/injection, vehicle: saline): 7 of 7

O=C(Nc1ccc(C2=NCCN2)cc1)c1cccc(C(=O)Nc2ccc(C3=NCCN3)cc2)c1
T/C [10]: 138 and 146 % of control

CS(=O)(=O)OCCN(CCOS(C)(=O)=O)c1ccc(N=O)cc1
T/C [4]: 126 % of control | T/C [5]: 142 % of control | survivor count [11]: 5 of 6 and 6 of 6 | survivor count (dose: 4.0 mg/kg/injection, vehicle: saline): 6 of 6 | survivor count [10]: 5 of 6 | survivor count [2]: 0 of 6

Cc1cc(N(CCCl)CCCl)ccc1N=Nc1ccccc1C(=O)O
T/C [8]: 125 % of control | T/C [9]: 128 and 128 % of control [5 of 6 alive] | survivor count [12]: 6 of 6

Oc1cc(CN(CCCl)CCCl)c(O)cc1CN(CCCl)CCCl
survivor count (dose: 1.25 mg/kg/injection, vehicle: saline): 3 of 6 | T/C [6]: 132 % of control [4 of 6 alive]

O=c1[nH]c(=O)n(C2CC(O)C(CO)O2)cc1F (stereo not given)
T/C [9]: 138 % of control | T/C [12]: 133 % of control

O=c1[nH]cc(F)c(=O)[nH]1
T/C [7]: 125 % of control | T/C [8]: 134 and 137 % of control | survivor count [12]: 6 of 6

CS(=O)(=O)OCC(O)C(O)C(O)C(O)COS(C)(=O)=O (stereo not given)
T/C [3]: 130 % of control

CCN(CCNc1ccc(C)c2sc3cc(Cl)ccc3c(=O)c12)CC(C)O (stereo not given)
survivor count (dose: 62.5 mg/kg/injection, vehicle: saline): 6 of 6 | survivor count (dose: 125.0 mg/kg/injection, vehicle: saline): 6 of 6

CO[C@H](C(=O)[C@@H](O)[C@@H](C)O)[C@@H]1Cc2cc3cc(OC4CC(OC5CC(O)C(O)C(C)O5)C(O)C(C)O4)c(C)c(O)c3c(O)c2C(=O)[C@H]1OC1CC(OC2CC(OC3CC(C)(O)C(O)C(C)O3)C(O)C(C)O2)C(O)C(C)O1 (stereo not given in full)
survivor count [4]: 0 of 10 | survivor count [11]: 4 of 10
